Here are results for two molecules from PMC8668097.

These are yes or no findings as the source states them, for the method shown. In cells and extracts the contact can be indirect. Binding can be weak; no strength is given. Sequences can lack the tags named with a protein.

The target of experiment [1] is T1, Arabidopsis cpSRP54-cYFP (Arabidopsis) (UniProt P37107).
T1 sequence: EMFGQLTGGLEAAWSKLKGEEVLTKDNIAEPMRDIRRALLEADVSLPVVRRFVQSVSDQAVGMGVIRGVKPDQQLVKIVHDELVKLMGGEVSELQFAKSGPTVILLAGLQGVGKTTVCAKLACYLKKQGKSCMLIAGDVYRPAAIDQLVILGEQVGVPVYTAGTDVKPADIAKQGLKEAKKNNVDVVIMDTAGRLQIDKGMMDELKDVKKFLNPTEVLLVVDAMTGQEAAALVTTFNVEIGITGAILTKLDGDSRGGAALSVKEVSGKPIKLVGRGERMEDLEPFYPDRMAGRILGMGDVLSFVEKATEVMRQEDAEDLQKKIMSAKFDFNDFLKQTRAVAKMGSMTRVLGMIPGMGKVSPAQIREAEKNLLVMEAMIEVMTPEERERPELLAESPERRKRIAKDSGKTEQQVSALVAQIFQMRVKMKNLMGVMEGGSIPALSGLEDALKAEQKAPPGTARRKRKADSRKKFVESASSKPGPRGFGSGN
Nature of the experiment: split reporter; BiFC: full-length coding regions fused to nYFP or cYFP, agroinfiltrated into N. benthamiana, confocal imaging at 2 dpi; cpSRP54 with AOC.1 also in TuMV-infected plants.

Another experiment has as its target rice cpSRP54-cYFP (rice). Described as above.

In the case of Arabidopsis AOC-nYFP (enzyme), the binding entry in experiment [1] is on record as “binds”.

B1: rice AOC-nYFP (enzyme, UniProt Q75KD7 50-240)
chain: ASLFSPKPATPKDARPAKVQEMFVYEINERDRESPAYLRLSAKQTENALGDLVPFTNKLYSGSLDKRLGISAGICILIQHVPERNGDRYEAIYSFYFGDYGHISVQGPYLTYEESYLAVTGGSGVFEGAYGQVKLNQIVFPFKIFYTFYLKGIPDLPRELLCTPVPPSPTVEPTPAAKATEPHACLNNFTN
Consider B1, for which the binding result in the experiment with rice cpSRP54-cYFP (rice) was “binds”.
